Results are given in words; binding and its absence hold for the method and conditions named. Binding calls can cover weak binding; strength is not graded here. For some assays here: Sequences can lack the tags named with a protein.
Experiments:
[1] = target: PIAL2 harboring the SIM mutations, fused to GAL4-BD (Arabidopsis) (UniProt F4JYG0); test: two-hybrid; GAL4-AD (pGADT7, AH109) and GAL4-BD (pGBKT7, Y187) fusions mated; growth on -Leu-Trp-His with 3 mM 3-amino-1,2,4-triazole
[2] = target: CMM2 domain of MOM1 fused to GAL4-BD (Arabidopsis); test: as above

The chains behind the UniProt entries cited, without tags or fusion partners. Where a name states a change or a piece, a line headed by the entry shows the natural chain unless it says otherwise.
UniProt F4JYG0: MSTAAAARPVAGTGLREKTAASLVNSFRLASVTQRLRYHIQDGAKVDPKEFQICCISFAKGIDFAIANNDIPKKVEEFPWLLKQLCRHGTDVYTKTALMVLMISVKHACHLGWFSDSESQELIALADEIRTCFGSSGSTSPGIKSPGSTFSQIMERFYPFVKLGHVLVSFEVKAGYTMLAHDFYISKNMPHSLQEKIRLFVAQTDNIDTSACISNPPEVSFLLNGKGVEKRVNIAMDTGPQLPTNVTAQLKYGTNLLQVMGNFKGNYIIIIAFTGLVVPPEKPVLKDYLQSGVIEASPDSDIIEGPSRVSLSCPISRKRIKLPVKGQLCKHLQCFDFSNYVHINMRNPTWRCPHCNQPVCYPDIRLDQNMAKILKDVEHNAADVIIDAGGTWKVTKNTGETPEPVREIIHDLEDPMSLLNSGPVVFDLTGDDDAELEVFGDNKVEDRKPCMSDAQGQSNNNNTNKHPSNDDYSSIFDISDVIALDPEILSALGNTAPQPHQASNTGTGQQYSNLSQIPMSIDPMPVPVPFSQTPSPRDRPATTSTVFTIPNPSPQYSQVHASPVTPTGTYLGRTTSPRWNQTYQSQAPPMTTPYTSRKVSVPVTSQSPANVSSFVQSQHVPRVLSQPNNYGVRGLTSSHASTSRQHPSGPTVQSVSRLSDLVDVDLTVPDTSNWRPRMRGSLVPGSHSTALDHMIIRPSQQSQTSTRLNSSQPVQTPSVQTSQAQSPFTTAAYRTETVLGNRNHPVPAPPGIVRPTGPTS
UniProt Q9FLP6: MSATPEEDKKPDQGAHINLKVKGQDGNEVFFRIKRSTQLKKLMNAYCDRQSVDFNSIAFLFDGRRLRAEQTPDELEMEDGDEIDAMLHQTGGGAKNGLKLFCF

Row | Molecule | binding [1] | binding [2]
1 | Full-length MOM1 fused to GAL4-AD (from UniProt Q9M658 1-2001) | binds | –
2 | MOM1-P3 fused to GAL4-AD (domain or fragment, UniProt Q9M658 1660-2001) TSVAEPHISGSDACEMEISEPGPQVERSTFANLFHEGGVEHSAGVTALVPSLLNNGTEQIAVQPVPQIPFPVFNDPFLHELEKLRRESENSKKTFEEKKSILKAELERKMAEVQAEFRRKFHEVEAEHNTRTTKIEKDKNLVIMNKLLANAFLSKCTDKKVSPSGAPRGKIQQLAQRAAQVSALRNYIAPQQLQASSFPAPALVSAPLQLQQSSFPAPGPAPLQPQASSFPSSVSRPSALLLNFAVCPMPQPRQPLISNIAPTPSVTPATNPGLRSPAPHLNSYRPSSSTPVATATPTSSVPPQALTYSAVSIQQQQEQQPQQSLSSGLQSNNEVVCLSDDE | – | binds
3 | MOM1-P3 harboring CMM3-M1 (V1994A/V1995A), fused to GAL4-AD (domain or fragment, UniProt Q9M658 1660-2001) TSVAEPHISGSDACEMEISEPGPQVERSTFANLFHEGGVEHSAGVTALVPSLLNNGTEQIAVQPVPQIPFPVFNDPFLHELEKLRRESENSKKTFEEKKSILKAELERKMAEVQAEFRRKFHEVEAEHNTRTTKIEKDKNLVIMNKLLANAFLSKCTDKKVSPSGAPRGKIQQLAQRAAQVSALRNYIAPQQLQASSFPAPALVSAPLQLQQSSFPAPGPAPLQPQASSFPSSVSRPSALLLNFAVCPMPQPRQPLISNIAPTPSVTPATNPGLRSPAPHLNSYRPSSSTPVATATPTSSVPPQALTYSAVSIQQQQEQQPQQSLSSGLQSNNEAACLSDDE | – | binds

The remaining lines, values ahead:

Row | binding [1] | binding [2] | Molecule
4 | no binding | – | SUMO2 as tested against GAL4-BD-PIAL2 with the SIM mutations (S4C Fig) (from UniProt Q9FLP6 1-103)
5 | – | binds | MOM1-P3 harboring CMM3-M2 (V1994A/V1995A/C1996A/L1997A/S1998A), fused to GAL4-AD (domain or fragment, UniProt Q9M658 1660-2001) TSVAEPHISGSDACEMEISEPGPQVERSTFANLFHEGGVEHSAGVTALVPSLLNNGTEQIAVQPVPQIPFPVFNDPFLHELEKLRRESENSKKTFEEKKSILKAELERKMAEVQAEFRRKFHEVEAEHNTRTTKIEKDKNLVIMNKLLANAFLSKCTDKKVSPSGAPRGKIQQLAQRAAQVSALRNYIAPQQLQASSFPAPALVSAPLQLQQSSFPAPGPAPLQPQASSFPSSVSRPSALLLNFAVCPMPQPRQPLISNIAPTPSVTPATNPGLRSPAPHLNSYRPSSSTPVATATPTSSVPPQALTYSAVSIQQQQEQQPQQSLSSGLQSNNEAAAAADDE

Reference: publication PMC6084981
